# According to PubChem BioAssay AID445 (National Center for Advancing Translational Sciences (NCATS), 2006):
# This is one part of the list. Further columns of the screen follow, without active or inactive calls. Most of these compounds were active or inconclusive in the main read-out, so they are no random draw. Potencies come from curve fits of mixed quality, noted in brackets.
# Assay: IkB Signaling
# Conditions: ABC-DLBCL IkBa-CBG/CBR dual luciferase ratio (green luciferase fused to IkBa over red control in OCI-Ly3 lymphoma cells), 4 h
# Outline: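 Curves were fitted separately to fusion (green), unfused (red) and ratio luminescence, then classed by r2, magnitude and activity. Cells: OCI-Ly3, 4 h compound plus doxycycline at 37C; 10 uM MG-132 defined full response.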
# [1] = measured here: control luc red channel unless noted
compound,measurement,setting,value
COc1ccc(NC(=O)CSc2nnc(-c3nnn(-c4ccc(F)cc4)c3C)o2)cc1,AC50,[1],"25.1 µM [falling, partial curve]"
Cn1c(=NC(=O)c2ccc(F)cc2)sc2cc(Br)ccc21,AC50,[1],"39.8 µM [falling, partial curve, poor fit]"
Cc1ccc(Cl)cc1-n1c(=O)cc(N2CCN(c3ccccc3)CC2)[nH]c1=O,AC50,[1],"39.8 µM [falling, single point]"
Cc1cc2n(n1)CCCN2C(=O)Nc1ccccc1F,AC50,[1],"2 µM [rising, partial curve]"
COc1cccc(C(=O)N2CCC(c3nc4ccccc4s3)CC2)c1,AC50,[1],"20 µM [falling, single point]"
COCCNc1cc(N2CCN(C3CCCCC3)CC2)c2noc3c2c1C(=O)c1ccccc1-3,AC50,[1],"39.8 µM [falling, partial curve]"
CCOc1ccccc1NC(=O)c1ccc2c(c1)CCCN2S(C)(=O)=O,AC50,[1],"31.6 µM [falling, single point]"
Cc1ccc(C(=O)Nc2nnc(SCc3cc(=O)c4c(C)ccc(C)c4[nH]3)s2)cc1,AC50,[1],"0.631 µM [falling, full curve, poor fit]"
O=C(C1COc2ccccc2O1)N(Cc1cccnc1)c1nc2c(F)cc(F)cc2s1 (stereo unspecified),AC50,[1],"25.1 µM [falling, single point]"
Cc1ccc(Cl)cc1N1CCN(C(=O)c2c(C)oc3ncnc(N4CCOCC4)c23)CC1,AC50,[1],"31.6 µM [falling, partial curve]"
COC(=O)c1cccc(Nc2c(-c3cc(Br)ccc3O)nc3nc[nH]n23)c1,AC50,[1],"2.51 µM [falling, partial curve]"
CCOc1ccccc1NC(=O)c1c(NCc2ccc(OC)c(OC)c2OC)sc2c1CCC(C)C2 (stereo unspecified),AC50,[1],"39.8 µM [falling, partial curve, poor fit]"
O=C(Nc1nccs1)c1ccc(COc2ccccc2Br)o1,AC50,[1],"10 µM [falling, partial curve]"
Cc1ccc(Cl)cc1NC(=O)c1cccc(NC(=O)N2CCSc3ncccc32)c1,AC50,[1],"15.8 µM [falling, partial curve]"
COCCN1C(=O)c2[nH]nc(-c3c(C)cc(C)cc3O)c2C1c1cccc(O)c1 (stereo unspecified),AC50,[1],"31.6 µM [falling, single point]"
COc1ccc(S(=O)(=O)N(CCc2ccccc2)CC(=O)NCc2ccccc2)cc1OC,AC50,[1],"39.8 µM [falling, single point]"
Cc1cccn2c(=O)c(C(=O)NCCc3ccc(Cl)cc3)cnc12,AC50,[1],"31.6 µM [falling, single point]"
Cc1cc(C)nc(N(C#N)S(=O)(=O)c2ccccc2)n1,AC50,[1],"15.8 µM [falling, partial curve]"
Cc1ccc(-c2nnc(Nc3ccc(Br)cc3)c3ccccc23)cc1S(=O)(=O)NCc1nc2ccccc2[nH]1,AC50,[1],"3.98 µM [falling, full curve]"
COc1ccc(-n2ncc3c(N4CCCc5ccccc54)ncnc32)cc1,AC50,[1],"25.1 µM [falling, partial curve]"
COc1cccc(C(=O)Nc2ccccc2-c2nc(-c3ccc(C)cc3)no2)c1,AC50,[1],"0.0398 µM [rising, full curve, poor fit]"
Cc1ccc(N2C(=O)c3n[nH]c(C)c3C2c2ccc(C(C)C)cc2)cc1 (stereo unspecified),AC50,[1],"20 µM [falling, single point]"
COc1ccccc1CN1CCN(C(CC(C)C)c2nnnn2Cc2cccs2)CC1 (stereo unspecified),AC50,[1],"25.1 µM [falling, single point]"
O=C1/C(=N/n2cnnc2)c2ccccc2N1Cc1ccccc1,AC50,measured here: IkB-luc green channel,"31.6 µM [rising, single point]"
same,AC50,measured here: control luc red channel,"20 µM [rising, partial curve]"
CC(NC(=O)Nc1ccccc1O)(C(F)(F)F)C(F)(F)F,AC50,[1],"7.94 µM [falling, partial curve]"
CC(=O)c1cccc(NC(=O)c2sc3nc4c(cc3c2N)CCCC4)c1,AC50,[1],"25.1 µM [falling, single point]"
COc1cc(OC)c(NC(=O)NCc2ccc3c(c2)CCN3C(C)=O)cc1Cl,AC50,[1],"10 µM [falling, partial curve]"
Cc1ccc(CNC(=O)C(=O)NCC(c2cccs2)S(=O)(=O)c2cccs2)cc1 (stereo unspecified),AC50,[1],"12.6 µM [falling, partial curve]"
CC(C)(C)OC(=O)N1CCC(c2c(C(=O)Nc3ccc4c(c3)OCO4)cnn2-c2ccc(F)cc2F)CC1,AC50,[1],"12.6 µM [falling, partial curve]"
CCOC(=O)c1[nH]c2ccccc2c1NC(=O)c1ccc(Br)o1,AC50,[1],"12.6 µM [falling, partial curve]"
Cc1cc(-c2ccc(C)c(S(=O)(=O)N(Cc3cccs3)C(C)C)c2)on1,AC50,[1],"20 µM [falling, single point]"
O=C(c1cccc(C(=O)N2CCN(c3ccc(F)cc3)CC2)c1)N1CCN(c2ccc(F)cc2)CC1,AC50,[1],"7.94 µM [falling, partial curve]"
CCSc1nc2c([nH]c3ccccc32)c(=O)n1-c1ccc(OC)cc1,AC50,[1],"1 µM [rising, full curve, poor fit]"
Cc1cccc(NC(=O)CCNS(=O)(=O)c2ccc3c(c2)CCCC(=O)N3)c1C,AC50,[1],"3.16 µM [falling, single point]"
CCOC(=O)c1[nH]c2c(c1Cc1ccccc1)C(=O)CC(c1ccc(OC)cc1)C2 (stereo unspecified),AC50,[1],"7.94 µM [falling, full curve]"
CCOC(=O)c1ccc(NC(=O)c2cnc(N3CCCC3)nc2C)cc1,AC50,[1],"39.8 µM [falling, single point]"
CCc1ccc(NC(=O)CSC2=Nc3ccccc3C3=NC(CC(=O)NCc4ccc5c(c4)OCO5)C(=O)N23)cc1 (stereo unspecified),AC50,[1],"25.1 µM [falling, single point]"
c1coc(-c2nc3ccccn3c2Nc2ccc3c(c2)OCCO3)c1,AC50,[1],"0.398 µM [falling, partial curve]"
Cc1ccc(Cn2c(SCc3ccc(C(=O)NCCc4ccccc4)cc3)nc3ccncc32)cc1,AC50,[1],"5.01 µM [falling, full curve, poor fit]"
COc1ccc(-c2cn3c(n2)sc2cc(C(=O)Nc4ccccc4F)ccc23)cc1,AC50,[1],"5.01 µM [falling, partial curve]"

# Random excerpt: 3 entries already listed.
compound,measurement,setting,value
CCc1ccc(NC(=O)CSC2=Nc3ccccc3C3=NC(CC(=O)NCc4ccc5c(c4)OCO5)C(=O)N23)cc1 (stereo unspecified),AC50,[1],"25.1 µM [falling, single point]"
Cc1ccc(Cl)cc1N1CCN(C(=O)c2c(C)oc3ncnc(N4CCOCC4)c23)CC1,AC50,[1],"31.6 µM [falling, partial curve]"
O=C(Nc1nccs1)c1ccc(COc2ccccc2Br)o1,AC50,[1],"10 µM [falling, partial curve]"
